PubChem BioAssay AID504808 – Drosophila RNAi Screening Center | 2011

Screen: 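Genes whose loss lifts activity of an E2F-responsive reporter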 (primary screen)
Cells: Drosophila S2 cells
Reagents: long dsRNA against Drosophila genes
Detection: 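Firefly luciferase driven by E2F sites, normalised to Renilla luciferase on the same minimal promoter, measured by plate reader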
Direction: E2F firefly: higher = more E2F reporter activity; Renilla normaliser: higher = more normaliser reporter signal
Call rule: 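Called active if the normalised E2F reporter went up by over 50%; the cutoff is arbitrary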
In all, the deposit lists about 21,000 reagents; shown is an unselected part of those that have a named target and a result. In the full data, 18 (0.084%) were called active. 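Raw counts without plate normalisation, one of two replicates; the ratio scores behind the calls were not deposited.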 Unmarked entries are inactive. Reagents against one gene are numbered here. The record does not give: the amount of reagent, the time to read-out.

How did the screen score CG3803?
E2F firefly, rep 1: 91397; Renilla normaliser, rep 1: 3896

With Or33c (Odorant receptor 33c), what does the deposit list?
E2F firefly, rep 1: 97890; Renilla normaliser, rep 1: 4877

Which result is listed for CG5846?
E2F firefly, rep 1: 67490; Renilla normaliser, rep 1: 3272

With Cdc23 (Cell division cycle 23), what was measured?
E2F firefly, rep 1: 82771; Renilla normaliser, rep 1: 3627

What did the screen give for CG3420?
E2F firefly, rep 1: 97022; Renilla normaliser, rep 1: 4262

How did the screen score melt (melted)?
E2F firefly, rep 1: 1.05e5; Renilla normaliser, rep 1: 4131

What did the screen give for CG14676?
E2F firefly, rep 1: 1.24e5; Renilla normaliser, rep 1: 6660

For CG14204, what was measured?
E2F firefly, rep 1: 1.19e5; Renilla normaliser, rep 1: 7760

For Or83a (Odorant receptor 83a), how do the results read?
E2F firefly, rep 1: 1.33e5; Renilla normaliser, rep 1: 6377

For spt4, what was measured?
E2F firefly, rep 1: 3173; Renilla normaliser, rep 1: 207

For CG12576, how do the results read?
E2F firefly, rep 1: 1.36e5; Renilla normaliser, rep 1: 5364

What did the screen give for Top3alpha (Topoisomerase 3alpha)?
E2F firefly, rep 1: 98390; Renilla normaliser, rep 1: 3911

For RpS27 (Ribosomal protein S27), what was measured?
E2F firefly, rep 1: 60829; Renilla normaliser, rep 1: 5268

Which result is listed for fus (fusilli) #1?
E2F firefly, rep 1: 1.33e5; Renilla normaliser, rep 1: 5104

How did the screen score fus (fusilli) #2?
E2F firefly, rep 1: 86090; Renilla normaliser, rep 1: 3421

For GstE7 (Glutathione S transferase E7), how do the results read?
E2F firefly, rep 1: 77865; Renilla normaliser, rep 1: 3341

What did the screen give for IP3K2 (Inositol 1,4,5-triphosphate kinase 2) #1?
E2F firefly, rep 1: 1.30e5; Renilla normaliser, rep 1: 6622

For IP3K2 (Inositol 1,4,5-triphosphate kinase 2) #2, how do the results read?
E2F firefly, rep 1: 1.41e5; Renilla normaliser, rep 1: 7231

For Herc4 (HECT and RLD domain containing E3 ubiquitin ligase 4), what does the deposit list?
E2F firefly, rep 1: 81040; Renilla normaliser, rep 1: 3706

With CG14692, how do the results read?
E2F firefly, rep 1: 1.39e5; Renilla normaliser, rep 1: 7161

With thoc5, what does the deposit list?
E2F firefly, rep 1: 81956; Renilla normaliser, rep 1: 3194

How did the screen score PH4alphaMP (prolyl-4-hydroxylase-alpha MP)?
E2F firefly, rep 1: 1.31e5; Renilla normaliser, rep 1: 6509

How did the screen score Ddx1 (Dead-box-1)?
E2F firefly, rep 1: 74998; Renilla normaliser, rep 1: 4015

Which result is listed for CG9682?
E2F firefly, rep 1: 1779; Renilla normaliser, rep 1: 852

How did the screen score RpLP0-like (Ribosomal protein LP0-like)?
E2F firefly, rep 1: 3173; Renilla normaliser, rep 1: 261

For CG30376, what was measured?
E2F firefly, rep 1: 1.33e5; Renilla normaliser, rep 1: 5577

With beta-Man (beta-Mannosidase) #1, how do the results read?
E2F firefly, rep 1: 69543; Renilla normaliser, rep 1: 4072

For beta-Man (beta-Mannosidase) #2, how do the results read?
E2F firefly, rep 1: 1.50e5; Renilla normaliser, rep 1: 7183
